According to article PMC6107238, “Conformational plasticity of the intrinsically disordered protein ASR1 modulates its function as a drought stress-responsive gene” (PLoS ONE, 2018):

Target: T1, ASR1 (Abscisic, Stress, Ripening 1) (Solanum lycopersicum (tomato)) (UniProt Q08655)
T1 sequence (looked up, limits assumed): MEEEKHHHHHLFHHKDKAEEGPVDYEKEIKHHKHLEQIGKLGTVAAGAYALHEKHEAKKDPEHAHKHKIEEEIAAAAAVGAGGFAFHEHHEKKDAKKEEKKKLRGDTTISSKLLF
Test: fluorescence anisotropy
Settings: no Zn2+; Buffer H: 100 mM NaCl, 20 mM HEPES pH 7.4, with 100 uM ZnCl2; 250 nM FITC-dsDNA; anisotropy temperature not stated (CD at 25 C); recombinant protein; label: 5' FITC on one strand

Sequence: TATTGGGCTTGG (double strand) [FITC-oligoC]
- binding result: no binding

The exact form of at least one protein or probe is not confirmed. Negatives hold for the conditions tested. Tags and fusion partners may be left off the protein sequences shown.
